Results on six molecules are retold here after PMC3830522.

These are yes or no findings as the source states them, for the method shown. In cells and extracts the contact can be indirect. For some of these results: Binding can be weak; no strength is given.

Assay [1] deals with T1, NBR1-derived UBA domain on agarose beads (UniProt Q14596).
T1 sequence: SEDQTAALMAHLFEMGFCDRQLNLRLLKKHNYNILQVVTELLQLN
As to the kind of experiment: pull-down; only the target purified.

Assay [2] has as its target LHBs (large surface protein of HBV) (Hepatitis B virus (subtype B)). As to the kind of experiment: co-IP.
The target of assay [3] is N123S LHBs mutation protein (Hepatitis B virus (subtype B)). As to the kind of experiment: co-IP.
Assay [4] concerns the target N15S LHBs mutation protein (Hepatitis B virus (subtype B)). Kind of assay: co-IP.
The target in assay [5] is N177S LHBs mutation protein (Hepatitis B virus (subtype B)). As to the kind of experiment: co-IP.
Assay [6] deals with N320K LHBs mutation protein (Hepatitis B virus (subtype B)). Kind of assay: co-IP.

Regarding “LHBs (large surface protein of HBV) (Hepatitis B virus (subtype B))”, the binding entry in assay [1] is given as “no binding”.
As to “N15S LHBs mutation protein (Hepatitis B virus (subtype B))”, the binding result in assay [1] is given as “no binding”.
Turning to “N123S LHBs mutation protein (Hepatitis B virus (subtype B))”, the binding result in assay [1] is reported as “no binding”.
Still for that read-out and setting: the same measure for “N177S LHBs mutation protein (Hepatitis B virus (subtype B))”: “no binding”.
As for “N320K LHBs mutation protein (Hepatitis B virus (subtype B))”, the binding result in assay [1] is given as “no binding”.

B1: EDEM (ER degradation-enhancing α-mannosidase-like protein) (protein, UniProt Q92611 1-657)
chain: MQWRALVLGLVLLRLGLHGVLWLVFGLGPSMGFYQRFPLSFGFQRLRSPDGPASPTSGPVGRPGGVSGPSWLQPPGTGAAQSPRKAPRRPGPGMCGPANWGYVLGGRGRGPDEYEKRYSGAFPPQLRAQMRDLARGMFVFGYDNYMAHAFPQDELNPIHCRGRGPDRGDPSNLNINDVLGNYSLTLVDALDTLAIMGNSSEFQKAVKLVINTVSFDKDSTVQVFEATIRVLGSLLSAHRIITDSKQPFGDMTIKDYDNELLYMAHDLAVRLLPAFENTKTGIPYPRVNLKTGVPPDTNNETCTAGAGSLLVEFGILSRLLGDSTFEWVARRAVKALWNLRSNDTGLLGNVVNIQTGHWVGKQSGLGAGLDSFYEYLLKSYILFGEKEDLEMFNAAYQSIQNYLRRGREACNEGEGDPPLYVNVNMFSGQLMNTWIDSLQAFFPGLQVLIGDVEDAICLHAFYYAIWKRYGALPERYNWQLQAPDVLFYPLRPELVESTYLLYQATKNPFYLHVGMDILQSLEKYTKVKCGYATLHHVIDKSTEDRMESFFLSETCKYLYLLFDEDNPVHKSGTRYMFTTEGHIVSVDEHLRELPWKEFFSEEGGQDQGGKSVHRPKPHELKVINSSSNCNRVPDERRYSLPLKSIYMRQIDQMVGLI
For the molecule B1, the binding result in assay [2] was “no binding”; in assay [3], “binds”; in assay [4] it was “binds”; in assay [5], “binds”; in assay [6] it was “binds”.
